Data on four molecules can be found in PubChem BioAssay AID328 (DTP/NCI, 2004).

The subject of the assay is BDF1 mice, P388 leukemia ip, median survival T/C. Nature of the assay: NCI In Vivo Anticancer Drug Screen. Data for tumor model P388 Leukemia (intraperitoneal) in B6D2F1 (BDF1) mice. The conditions noted are these: T/C endpoint: median survival time, vehicle: saline, higher T/C = longer survival. The essentials: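 Mice carrying the transplantable tumour receive compound or vehicle. Survival is followed in each arm, and the treated measure is divided by the vehicle measure.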

The mark [1] stands for this setting: dose: 0.4 mg/kg/injection, schedule: Q04DX003 (ip).
Setting [2] is: dose: 12.5 mg/kg/injection, schedule: Q04DX003 (ip).
Where [3] appears, read: dose: 25.0 mg/kg/injection, schedule: Q04DX003 (ip).

The list shows only some results of the screen, not a fair sample: its compounds were picked by chemical class. Not every dose and run of a compound is shown. T/C: endpoint of the treated group in % of that of the vehicle group. Some entries give survivors of the animals treated and no T/C: the source holds a T/C of zero for them, seemingly a mark for toxic or unscored doses. Some doses without a T/C left all or most animals alive at the check, yet need not have been tolerated: survival well below the control is almost never listed, so the zero probably covers shortened survival too. Counts of survivors are from the toxicity check (mostly the fifth day) where no day follows; animals may have died later. Schedules are NCI's codes, taken here to give the interval after Q, in days (D) or hours (H), and the number of doses after X. For survival time, this PubChem deposit counts one and a half times the control or more as active, and values a quarter to a half above the control carry no call in these data; other NCI protocols may use other cut-offs. Some entries were tested several times; the results are listed from low to high.

For the molecule `Cn1cc(N(CCCl)CCCl)c(=O)[nH]c1=O`, the T/C reads like this: (dose: 0.14 mg/kg/injection, schedule: Q01DX009 (ip)) 118 % of control; (dose: 0.21 mg/kg/injection, schedule: Q01DX009 (ip)) 118 % of control; (dose: 0.33 mg/kg/injection, schedule: Q01DX009 (ip)) 194 % of control; under setting [1], 127 % of control; (dose: 0.5 mg/kg/injection, schedule: Q01DX009 (ip)) 215 % of control; (dose: 0.58 mg/kg/injection, schedule: Q01DX009 (ip)) 180 % of control. Moreover, the T/C (dose: 0.76 mg/kg/injection, schedule: Q01DX009 (ip)) is 195 and 200 % of control; the T/C (dose: 0.8 mg/kg/injection, schedule: Q04DX003 (ip)) was 227 % of control; the T/C (dose: 0.89 mg/kg/injection, schedule: Q01DX001 (ip)) is 110 % of control; the T/C (dose: 1.05 mg/kg/injection, schedule: Q04DX003 (ip)) was 160 % of control; the T/C (dose: 1.1 mg/kg/injection, schedule: Q01DX001 (ip)) is 125 % of control; the T/C (dose: 1.16 mg/kg/injection, schedule: Q01DX009 (ip)) is given as 213, 254, 255 % of control. In addition, the T/C runs as follows: (dose: 1.19 mg/kg/injection, schedule: Q01DX001 (ip)) 109 % of control; (dose: 1.6 mg/kg/injection, schedule: Q04DX003 (ip)) 180 and 250 % of control; (dose: 1.74 mg/kg/injection, schedule: Q01DX009 (ip)) 195 and 254 % of control; (dose: 1.79 mg/kg/injection, schedule: Q01DX001 (ip)) 109, 135, 141 % of control; (dose: 2.33 mg/kg/injection, schedule: Q01DX009 (ip)) 125 % of control; (dose: 2.4 mg/kg/injection, schedule: Q04DX003 (ip)) 210 % of control. The T/C runs as follows: (dose: 2.6 mg/kg/injection, schedule: Q01DX001 (ip)) 150 % of control; (dose: 2.68 mg/kg/injection, schedule: Q01DX001 (ip)) 131 % of control; (dose: 3.4 mg/kg/injection, schedule: Q01DX009 (ip)) 105 % of control; (dose: 3.59 mg/kg/injection, schedule: Q01DX001 (ip)) 110 % of control. For the same molecule, the survivor count is, setting by setting: (dose: 5.2 mg/kg/injection, schedule: Q01DX009 (ip)) 6 of 6; (dose: 7.8 mg/kg/injection, schedule: Q01DX009 (ip)) 6 of 6.

For the molecule `NC1CCCCC1.O=P(O)(NCCCO)N(CCCl)CCCl`, the T/C is, setting by setting: (dose: 25.0 mg/kg/injection, schedule: Q01DX010 (ip)) 176 % of control; (dose: 50.0 mg/kg/injection, schedule: Q01DX010 (ip)) 180 % of control; (dose: 100.0 mg/kg/injection, schedule: Q01DX010 (ip)) 230 % of control; (dose: 200.0 mg/kg/injection, schedule: Q01DX010 (ip)) 134 % of control. Besides, the survivor count (dose: 400.0 mg/kg/injection, schedule: Q01DX010 (ip)) is on record as 1 of 6.

`O=C(Nc1ccc([N+](=O)[O-])cc1[N+](=O)[O-])Nc1ccc([N+](=O)[O-])cc1[N+](=O)[O-]`: the T/C was 109 % of control (dose: 6.25 mg/kg/injection, schedule: Q04DX003 (ip)); 104 % of control under setting [2]; 95 % of control under setting [3].

With `CCN(CCCl)CC1OC(O)C(O)C1O` (stereo not given), the T/C was 129 % of control (dose: 0.26 mg/kg/injection, schedule: Q04DX003 (ip)); 141 % of control under setting [1]; 145 and 150 % of control (dose: 0.6 mg/kg/injection, schedule: Q04DX003 (ip)); 162 % of control (dose: 0.9 mg/kg/injection, schedule: Q04DX003 (ip)); 175 % of control (dose: 1.3 mg/kg/injection, schedule: Q04DX003 (ip)); 236 % of control (dose: 2.6 mg/kg/injection, schedule: Q01DX009 (ip)). Further, the T/C (dose: 3.0 mg/kg/injection, schedule: Q04DX003 (ip)) was 162 % of control; the T/C (dose: 4.0 mg/kg/injection, schedule: Q01DX009 (ip)) is 218 % of control; the T/C (dose: 5.0 mg/kg/injection, schedule: Q04DX003 (ip)) is 170 % of control; the T/C (dose: 6.0 mg/kg/injection, schedule: Q01DX009 (ip)) is 240 % of control; the T/C (dose: 6.25 mg/kg/injection, schedule: Q01DX009 (ip)) was 216 % of control; the T/C (dose: 8.0 mg/kg/injection, schedule: Q04DX003 (ip)) was 168 and 204 % of control. For the same molecule, the T/C was 150 % of control (dose: 9.0 mg/kg/injection, schedule: Q01DX009 (ip)); 204 % of control (dose: 12.0 mg/kg/injection, schedule: Q04DX003 (ip)); 225 % of control under setting [2]; 131 % of control (dose: 18.0 mg/kg/injection, schedule: Q04DX003 (ip)); 120 % of control under setting [3]. The survivor count runs as follows: (dose: 12.5 mg/kg/injection, schedule: Q01DX009 (ip)) 6 of 6; (dose: 25.0 mg/kg/injection, schedule: Q01DX009 (ip)) 5 of 6; (dose: 50.0 mg/kg/injection, schedule: Q04DX003 (ip)) 6 of 6; (dose: 100.0 mg/kg/injection, schedule: Q04DX003 (ip)) 6 of 6; (dose: 200.0 mg/kg/injection, schedule: Q04DX003 (ip)) 0 of 6; (dose: 400.0 mg/kg/injection, schedule: Q04DX003 (ip)) 0 of 6.
